No constants are given. Whether binding was seen depends on the method and setting. In cells and extracts the contact can be indirect. Some binding calls cover weakened binding; strength is not graded here.

Chains of the proteins cited; added tags and fusions are not shown. Residues count along the entry.
UniProt P46531, residues 19-1735: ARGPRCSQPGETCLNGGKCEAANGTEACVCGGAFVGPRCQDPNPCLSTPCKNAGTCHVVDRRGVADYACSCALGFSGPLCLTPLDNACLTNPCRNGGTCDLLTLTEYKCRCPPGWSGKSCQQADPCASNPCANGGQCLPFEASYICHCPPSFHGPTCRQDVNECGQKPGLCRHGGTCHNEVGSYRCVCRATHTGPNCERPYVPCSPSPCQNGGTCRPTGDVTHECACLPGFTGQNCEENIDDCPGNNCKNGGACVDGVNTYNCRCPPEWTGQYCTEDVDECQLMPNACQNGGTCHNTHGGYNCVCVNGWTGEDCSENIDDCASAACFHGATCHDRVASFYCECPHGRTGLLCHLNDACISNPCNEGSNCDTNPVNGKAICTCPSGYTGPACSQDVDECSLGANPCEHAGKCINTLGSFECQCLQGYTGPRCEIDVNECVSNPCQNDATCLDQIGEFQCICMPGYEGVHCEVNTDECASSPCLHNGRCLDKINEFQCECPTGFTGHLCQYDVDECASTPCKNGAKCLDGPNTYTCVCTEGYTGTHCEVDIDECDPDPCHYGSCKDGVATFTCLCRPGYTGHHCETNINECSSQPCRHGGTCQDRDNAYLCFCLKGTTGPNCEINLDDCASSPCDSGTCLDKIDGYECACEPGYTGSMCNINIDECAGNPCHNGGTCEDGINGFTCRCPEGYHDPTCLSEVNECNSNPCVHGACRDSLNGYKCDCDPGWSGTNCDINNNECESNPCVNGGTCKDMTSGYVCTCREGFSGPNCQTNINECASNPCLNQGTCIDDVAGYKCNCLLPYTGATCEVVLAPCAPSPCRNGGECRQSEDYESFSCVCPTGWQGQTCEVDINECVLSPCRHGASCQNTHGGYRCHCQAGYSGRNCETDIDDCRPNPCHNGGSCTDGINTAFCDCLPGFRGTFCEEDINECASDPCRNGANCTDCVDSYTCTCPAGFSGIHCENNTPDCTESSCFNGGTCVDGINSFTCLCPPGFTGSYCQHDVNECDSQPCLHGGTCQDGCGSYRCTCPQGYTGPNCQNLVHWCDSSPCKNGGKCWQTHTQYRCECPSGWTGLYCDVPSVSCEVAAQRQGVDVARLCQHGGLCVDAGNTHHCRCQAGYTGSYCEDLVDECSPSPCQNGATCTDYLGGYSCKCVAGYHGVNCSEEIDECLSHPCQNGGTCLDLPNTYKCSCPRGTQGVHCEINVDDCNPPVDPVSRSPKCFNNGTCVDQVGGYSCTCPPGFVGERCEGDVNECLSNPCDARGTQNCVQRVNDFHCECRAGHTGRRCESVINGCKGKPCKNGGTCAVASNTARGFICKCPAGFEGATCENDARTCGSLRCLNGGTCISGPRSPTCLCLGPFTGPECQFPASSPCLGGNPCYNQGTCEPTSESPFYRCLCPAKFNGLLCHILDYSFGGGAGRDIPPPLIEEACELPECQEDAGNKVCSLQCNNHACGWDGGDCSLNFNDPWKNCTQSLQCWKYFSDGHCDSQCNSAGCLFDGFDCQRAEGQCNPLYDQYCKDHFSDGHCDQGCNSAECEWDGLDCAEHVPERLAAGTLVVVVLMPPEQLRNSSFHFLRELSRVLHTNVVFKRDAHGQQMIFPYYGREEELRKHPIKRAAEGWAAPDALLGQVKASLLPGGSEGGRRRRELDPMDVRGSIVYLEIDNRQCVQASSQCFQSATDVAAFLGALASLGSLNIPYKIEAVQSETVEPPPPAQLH

For this assay, the target named is myc-tagged NOTCH1 extracellular domain (ECD) (UniProt P46531). Nature of the assay: co-IP; HEK293T cells 48 h after transfection, lysed in IP lysis buffer; lysates incubated with antibodies at 4 °C overnight, protein A/G beads 1 h at room temperature; immunoblot. On the technique in general: A western blot detects proteins with antibodies after separation by electrophoresis.

B1: SLC35D3 lacking the last 30 amino acids (SLC35D3-30aa) (domain or fragment, UniProt Q5M8T2 1-386)
chain: MRQLCRGRVLGISVAIAHGVFSGSLNILLKFLISRYQFSFLTLVQCLTSSTAALSLELLRRLGLIAVPPFGLSLARSFAGVAVLSTLQSSLTLWSLRGLSLPMYVVFKRCLPLVTMLIGVLVLKNGAPSPGVLAAVLITTCGAALAGAGDLTGDPIGYVTGVLAVLVHAAYLVLIQKASADTEHGPLTAQYVIAVSATPLLVICSFASTDSIHAWTFPGWKDPAMVCIFVACILIGCAMNFTTLHCTYINSAVTTSFVGVVKSIATITVGMVAFSDVEPTSLFIAGVVVNTLGSIIYCVAKFMETRKQSNYEDLEAQPRGEEAQLSGDQLPFVMEELPGEGGNGRSEGGEAAGGPAQESRQEVRGSPRGVPLVAGSSEEGSRRSLK
As to B1, the binding entry was “binds”.

(Values after article PMC10667520.)
